Reference: patent EP0730651B1
These are yes or no findings as the source states them, for the method shown. Some binding calls cover weakened binding; strength is not graded here.

Sequences of proteins named here, by UniProt entry; tags and fusion partners are left off. A change or cut given only in a name is not applied to a line headed by its entry. Residues count along the entry.
UniProt P16092: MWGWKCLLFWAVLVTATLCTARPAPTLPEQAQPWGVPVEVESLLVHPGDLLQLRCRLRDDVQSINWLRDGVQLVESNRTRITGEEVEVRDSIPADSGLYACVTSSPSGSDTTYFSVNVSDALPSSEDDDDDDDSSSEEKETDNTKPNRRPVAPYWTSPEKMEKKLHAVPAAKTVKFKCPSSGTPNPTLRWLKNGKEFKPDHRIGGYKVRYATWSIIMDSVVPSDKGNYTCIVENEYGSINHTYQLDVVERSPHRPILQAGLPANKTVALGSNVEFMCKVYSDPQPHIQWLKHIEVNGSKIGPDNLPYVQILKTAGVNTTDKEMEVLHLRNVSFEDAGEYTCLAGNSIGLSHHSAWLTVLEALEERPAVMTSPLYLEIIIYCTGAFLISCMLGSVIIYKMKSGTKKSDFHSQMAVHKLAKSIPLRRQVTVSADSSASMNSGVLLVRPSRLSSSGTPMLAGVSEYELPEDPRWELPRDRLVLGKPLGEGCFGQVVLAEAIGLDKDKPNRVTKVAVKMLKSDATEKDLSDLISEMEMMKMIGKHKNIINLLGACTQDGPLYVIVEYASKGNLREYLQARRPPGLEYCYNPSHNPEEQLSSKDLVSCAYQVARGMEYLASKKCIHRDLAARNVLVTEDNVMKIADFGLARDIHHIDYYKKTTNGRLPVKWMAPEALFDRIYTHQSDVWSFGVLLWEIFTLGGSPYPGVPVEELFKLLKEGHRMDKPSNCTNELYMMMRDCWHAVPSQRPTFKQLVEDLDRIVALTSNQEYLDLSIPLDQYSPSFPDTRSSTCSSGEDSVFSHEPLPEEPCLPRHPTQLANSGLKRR
FGF-receptor type 1 (FGFR1) present on NIH 3T3 cells: residues 22-822 of P16092
soluble FGF receptor 1 (FGFR-1; flg) alkaline phosphatase fusion (FRAP): residues 22-376 of P16092
UniProt P21803, residues 22-377: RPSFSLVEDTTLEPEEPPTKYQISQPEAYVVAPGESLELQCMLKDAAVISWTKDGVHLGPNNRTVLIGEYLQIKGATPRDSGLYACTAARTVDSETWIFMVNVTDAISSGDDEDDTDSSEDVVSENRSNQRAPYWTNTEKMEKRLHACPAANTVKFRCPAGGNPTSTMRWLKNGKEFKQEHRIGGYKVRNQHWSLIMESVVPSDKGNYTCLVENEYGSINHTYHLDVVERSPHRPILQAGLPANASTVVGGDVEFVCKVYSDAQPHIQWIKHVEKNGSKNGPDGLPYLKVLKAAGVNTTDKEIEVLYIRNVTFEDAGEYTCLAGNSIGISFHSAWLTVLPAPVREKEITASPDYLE

Columns and labels:
[1] = target: FGF-receptor type 1 (FGFR1) present on NIH 3T3 cells (UniProt P16092); assay: competition binding on NIH 3T3 cells
[2] = target: soluble FGF receptor 2 (FGFR-2; bek) alkaline phosphatase fusion (FRAP) (murine) (UniProt P21803); assay: chemical cross-linking of radiolabelled FGF to the soluble receptor, autoradiography
[3] = target: soluble FGF receptor 1 (FGFR-1; flg) alkaline phosphatase fusion (FRAP) (murine) (UniProt P16092); assay: as above
[4] = target: soluble FGF receptor 1 (FGFR-1; flg) alkaline phosphatase fusion (FRAP) (murine) (UniProt P16092); assay: displacement of 125I-FGF-2 from soluble FGFR1-AP

Measured: binding

fibroblast growth factor-2 (FGF-2), wild type (from UniProt P09038 1-155) (ligand)
binds: all assays above
